# Literature values, collected in patent US20210322301A1, “DOSING REGIMENS FOR TREATING METAL-MEDIATED CONDITIONS” (Abfero Pharmaceuticals, Inc., priority 2016, published 2021).
# At least one compound was matched to its structure with a doubt left.
# Conditions: subset of patients with elevated LIC; cited from earlier work
structure (smiles),measurement,value
O=C(O)c1ccc(-n2nc(-c3ccccc3O)nc2-c2ccccc2O)cc1 [Deferasirox],Efficacy compared with deferoxamine,non-inferior to deferoxamine
